According to PMC7337904:

Target: AvaII restriction endonuclease (wild type) (UniProt Q8YYB7)
Experiment: X-ray crystallography
Settings: Ca2+, recombinant protein

“GUAGGACCAUG / CCATGGTCCTA [11-nt RNA/DNA heteroduplex used for crystals]”: binds (1.8 A, open scanning complex, backbone contacts only, disordered duplex, DNA:RNA hybrid).

“GTAGGACCATC (double strand) [11-bp dsDNA used for crystals]”: binds (DNA partially cleaved, closed specific complex).

For at least one entry, the source does not settle the construct or the ends of the probe.
